PubChem BioAssay AID192 (DTP/NCI, 2004)
The list is a part of this screen's results and no random one: it is rich in T/C values a quarter to a half above the control, in often repeated tests (any T/C) and in doses without a T/C. Further doses and runs are listed elsewhere. T/C is the treated group as % of the vehicle group. Some doses have a count of surviving animals in place of a T/C: the source files T/C as zero there, which appears to mark a toxic dose or a test without result, not a measured value. Some survivor counts are full or nearly so, which does not show that the dose was tolerated: survival well below the control is almost never listed, so the zero probably covers shortened survival too. Survivors were counted at the toxicity check, usually on the fifth day, unless a day is given; later deaths do not show. Schedules are NCI's codes, read here as Q, the interval in days (D) or hours (H), X, the number of doses. Some entries were tested several times; the results are listed from low to high. Where survival is the endpoint, the PubChem record calls one and a half times the control and up active, and a quarter to a half above the control has no call in these data; cut-offs in other NCI protocols can differ. Some T/C values carry the count of animals alive at the toxicity check (mostly the fifth day); without a count, all were alive then.

Tested on: BDF1 mice, B16 melanoma ip, median survival T/C
Assay: NCI In Vivo Anticancer Drug Screen. Data for tumor model B16 Melanoma (intraperitoneal) in B6D2F1 (BDF1) mice
Details: T/C endpoint: median survival time, higher T/C = longer survival
Method: The antitumor activity of compounds was measured in mice bearing transplantable tumors. Survival or tumor size were measured and the results are expressed as the measurement made in the treated group (T) divided by the measurement made in the vehicle treated control group (C). The tumor model used in this assay is B16 Melanoma (intraperitoneal) in B6D2F1 (BDF1) mice

[1] = dose: 1.0 mg/kg/injection, schedule: Q01DX009 (ip), vehicle: saline
[2] = dose: 4.0 mg/kg/injection, schedule: Q01DX009 (ip), vehicle: saline

`CC(C)NC(=O)OCc1c(COC(=O)NC(C)C)c(-c2ccc(Cl)c(Cl)c2)n2c1CCC2` was tested, and the T/C (dose: 2.34 mg/kg/injection, schedule: Q01DX009 (ip), vehicle: saline with Tween-80) was 145 % of control, the T/C (dose: 4.69 mg/kg/injection, schedule: Q01DX009 (ip), vehicle: other) was 140 % of control and the T/C (dose: 5.18 mg/kg/injection, schedule: Q01DX009 (ip), vehicle: distilled water + Tween-80) was 129 % of control [9 of 10 alive]. For the same compound, the T/C (dose: 6.25 mg/kg/injection, schedule: Q01DX009 (ip), vehicle: distilled water + Tween-80) was 146 % of control [9 of 10 alive], the T/C (dose: 8.64 mg/kg/injection, schedule: Q01DX009 (ip), vehicle: distilled water + Tween-80) was 148 % of control and the T/C (dose: 24.0 mg/kg/injection, schedule: Q01DX009 (ip), vehicle: distilled water + Tween-80) was 148 % of control. The survivor count (dose: 37.5 mg/kg/injection, schedule: Q01DX009 (ip), vehicle: other) was 10 of 10 and the survivor count (dose: 75.0 mg/kg/injection, schedule: Q01DX009 (ip), vehicle: other) was 9 of 10.

With `CC[C@](O)(C(=O)O)c1cc2n(c(=O)c1CO)Cc1cc3ccccc3nc1-2` the T/C [1] was 134 % of control, the T/C (dose: 1.57 mg/kg/injection, schedule: Q01DX009 (ip), vehicle: other) was 128 % of control and the T/C (dose: 2.0 mg/kg/injection, schedule: Q01DX009 (ip), vehicle: saline, evaluated on day 45) was 134 % of control. The T/C (dose: 2.0 mg/kg/injection, schedule: Q01DX009 (ip), vehicle: saline, evaluated on day 60) was 127 % of control, the survivor count (dose: 3.13 mg/kg/injection, schedule: Q01DX009 (ip), vehicle: other) was 7 of 10 and the T/C [2] was 126 % of control. The survivor count [2] was 10 of 10, the survivor count (dose: 6.25 mg/kg/injection, schedule: Q01DX009 (ip), vehicle: other) was 9 of 10 and the survivor count (dose: 8.0 mg/kg/injection, schedule: Q01DX009 (ip), vehicle: saline) was 10 of 10 and 6 of 6. The survivor count (dose: 12.5 mg/kg/injection, schedule: Q01DX009 (ip), vehicle: other) was 8 of 10 and the survivor count (dose: 25.0 mg/kg/injection, schedule: Q01DX009 (ip), vehicle: other) was 4 of 10.

`CCN1C[C@]2(COC)[C@H](O)C[C@H](OC)[C@]34C1[C@H]([C@H](OC)[C@H]23)[C@]1(OC(C)=O)[C@H]2[C@@H](OC(=O)c3ccccc3)[C@](O)(C[C@H]24)[C@@H](OC)[C@@H]1O` was tested, and the survivor count (dose: 0.13 mg/kg/injection, schedule: Q01DX009 (ip), vehicle: Klucel (hydroxypropylcellulose) (HPC)) was 10 of 10, the survivor count (dose: 0.25 mg/kg/injection, schedule: Q01DX009 (ip), vehicle: Klucel (hydroxypropylcellulose) (HPC)) was 8 of 10 and the survivor count (dose: 0.5 mg/kg/injection, schedule: Q01DX009 (ip), vehicle: Klucel (hydroxypropylcellulose) (HPC)) was 7 of 10. For the same compound, the survivor count (dose: 1.0 mg/kg/injection, schedule: Q01DX009 (ip), vehicle: Klucel (hydroxypropylcellulose) (HPC)) was 0 of 10 and the survivor count (dose: 30.0 micrograms/kg/injection, schedule: Q01DX009 (ip), vehicle: Klucel (hydroxypropylcellulose) (HPC)) was 10 of 10.

In the case of `C[C@@H]1CN1C1=CC(=O)C(N2C[C@H]2C)=CC1=O`, the T/C [1] is reported as 127 % of control and the T/C (dose: 2.0 mg/kg/injection, schedule: Q01DX009 (ip), vehicle: saline) is reported as 147 % of control.

`CCC(CC)CC1CN2CCc3cc(OC)c(OC)cc3C2CC1(O)CC` (stereo not drawn) was tested, and the survivor count (dose: 50.0 mg/kg/injection, schedule: Q01DX009 (ip), vehicle: Klucel (hydroxypropylcellulose) (HPC)) was 2 of 10.

For `O=C(Nc1ccc2c(c1)Cc1cc(Br)ccc1-2)C(F)(F)F`, the survivor count (dose: 200.0 mg/kg/injection, schedule: Q04DX003 (ip), vehicle: saline with Tween-80) was 10 of 10.
